The results in this text go back to publication PMC6082843.

By UniProt entry, the sequences of proteins in these tests, tags left out.
UniProt Q9UM11: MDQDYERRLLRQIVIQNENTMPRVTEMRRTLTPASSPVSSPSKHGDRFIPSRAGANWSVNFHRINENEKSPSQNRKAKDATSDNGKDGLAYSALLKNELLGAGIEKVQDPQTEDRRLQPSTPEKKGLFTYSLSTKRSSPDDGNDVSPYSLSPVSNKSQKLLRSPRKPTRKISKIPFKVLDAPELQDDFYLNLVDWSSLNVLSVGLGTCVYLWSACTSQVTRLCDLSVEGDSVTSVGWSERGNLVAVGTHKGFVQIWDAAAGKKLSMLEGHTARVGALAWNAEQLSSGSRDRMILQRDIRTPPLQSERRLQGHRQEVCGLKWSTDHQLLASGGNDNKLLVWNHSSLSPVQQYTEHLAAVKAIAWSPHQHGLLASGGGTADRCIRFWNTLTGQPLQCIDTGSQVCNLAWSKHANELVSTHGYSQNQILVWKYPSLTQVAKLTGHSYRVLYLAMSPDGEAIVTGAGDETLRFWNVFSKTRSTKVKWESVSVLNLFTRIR
UniProt P67775: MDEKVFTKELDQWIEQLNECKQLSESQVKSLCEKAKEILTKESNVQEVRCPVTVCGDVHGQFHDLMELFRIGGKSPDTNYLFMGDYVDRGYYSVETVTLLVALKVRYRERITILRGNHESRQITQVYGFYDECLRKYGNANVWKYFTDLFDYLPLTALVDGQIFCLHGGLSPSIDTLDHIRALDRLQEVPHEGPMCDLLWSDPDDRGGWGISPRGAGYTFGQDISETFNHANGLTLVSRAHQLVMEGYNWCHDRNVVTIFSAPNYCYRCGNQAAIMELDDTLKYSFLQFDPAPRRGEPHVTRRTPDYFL

The target of assay [1] is T1, Cdc14A (active form; construct of Supplementary Figures S2 and S8 not given) (human) (UniProt Q9UNH5).
T1 sequence: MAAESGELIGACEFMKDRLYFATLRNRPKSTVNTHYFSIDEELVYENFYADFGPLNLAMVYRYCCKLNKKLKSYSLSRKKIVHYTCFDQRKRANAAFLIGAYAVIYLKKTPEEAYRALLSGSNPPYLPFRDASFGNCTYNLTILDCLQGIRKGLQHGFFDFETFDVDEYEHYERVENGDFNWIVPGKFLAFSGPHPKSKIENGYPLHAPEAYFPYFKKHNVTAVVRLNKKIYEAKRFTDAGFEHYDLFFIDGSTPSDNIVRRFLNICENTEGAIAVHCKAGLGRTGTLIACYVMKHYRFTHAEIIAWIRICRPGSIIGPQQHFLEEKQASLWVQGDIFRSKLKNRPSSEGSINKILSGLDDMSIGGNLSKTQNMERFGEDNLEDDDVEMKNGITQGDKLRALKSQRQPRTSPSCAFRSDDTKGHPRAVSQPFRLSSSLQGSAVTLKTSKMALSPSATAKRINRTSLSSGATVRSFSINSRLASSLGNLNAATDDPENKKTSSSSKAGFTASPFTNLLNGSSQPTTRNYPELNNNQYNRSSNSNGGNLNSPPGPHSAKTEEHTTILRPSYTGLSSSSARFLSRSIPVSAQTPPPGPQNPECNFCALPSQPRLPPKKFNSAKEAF
The experiment in a line: co-IP; co-immunoprecipitation from cellular mitotic extracts (Supplementary Figure S8).

Assay [2] concerns the target T1, Cdc14A (active form; construct of Supplementary Figures S2 and S8 not given) (human). The experiment in a line: co-IP; method not named in the text for this pair; 'interacts in vivo'; shown in Supplementary Figure S2.
The target in assay [3] is T2, Cdc14A-3A mutant (construct of Supplementary Figure S8 not given) (human) (UniProt Q9UNH5).
T2 sequence: T1 sequence with S411A, S453A, S549A
The experiment in a line: co-IP; co-immunoprecipitation from cellular mitotic extracts (Supplementary Figure S8).

Residue numbers refer to the chain shown, from its start. No constants are given. Whether binding was seen depends on the method and setting. Binding seen in cells or lysates may run through a third protein. Some binding calls cover weakened binding; strength is not graded here.

Consider “Cdh1, the activator of APC/C (from UniProt Q9UM11 1-496)”, for which the binding result in assay [1] is “no binding”.
In the case of “PP2A α-catalytic subunit (from UniProt P67775 1-309) (enzyme)”, the binding entry in assay [2] is recorded as “binds”.
“Plk1 (from UniProt P53350 1-603) (enzyme)”: the binding result in assay [1] and in assay [3] was “binds” in each case.
